Source: doi:10.1101/2023.02.08.527677
No constants are given. Whether binding was seen depends on the method and setting. In cells and extracts the contact can be indirect. Some results given as binding are weak or reduced against the parent protein; the word gives no strength.

Chains of the proteins cited; added tags and fusions are not shown. Lines headed by an entry give the natural chain unless they say otherwise; changes in a name come on top.
UniProt O15260: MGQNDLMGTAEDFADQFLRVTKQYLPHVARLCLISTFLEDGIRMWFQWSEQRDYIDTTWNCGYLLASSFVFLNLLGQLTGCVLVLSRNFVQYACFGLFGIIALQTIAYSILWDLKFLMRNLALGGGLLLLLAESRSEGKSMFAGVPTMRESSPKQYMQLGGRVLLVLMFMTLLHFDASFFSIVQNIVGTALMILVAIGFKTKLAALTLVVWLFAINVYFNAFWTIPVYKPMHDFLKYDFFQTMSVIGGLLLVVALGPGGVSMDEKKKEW
UniProt P04114: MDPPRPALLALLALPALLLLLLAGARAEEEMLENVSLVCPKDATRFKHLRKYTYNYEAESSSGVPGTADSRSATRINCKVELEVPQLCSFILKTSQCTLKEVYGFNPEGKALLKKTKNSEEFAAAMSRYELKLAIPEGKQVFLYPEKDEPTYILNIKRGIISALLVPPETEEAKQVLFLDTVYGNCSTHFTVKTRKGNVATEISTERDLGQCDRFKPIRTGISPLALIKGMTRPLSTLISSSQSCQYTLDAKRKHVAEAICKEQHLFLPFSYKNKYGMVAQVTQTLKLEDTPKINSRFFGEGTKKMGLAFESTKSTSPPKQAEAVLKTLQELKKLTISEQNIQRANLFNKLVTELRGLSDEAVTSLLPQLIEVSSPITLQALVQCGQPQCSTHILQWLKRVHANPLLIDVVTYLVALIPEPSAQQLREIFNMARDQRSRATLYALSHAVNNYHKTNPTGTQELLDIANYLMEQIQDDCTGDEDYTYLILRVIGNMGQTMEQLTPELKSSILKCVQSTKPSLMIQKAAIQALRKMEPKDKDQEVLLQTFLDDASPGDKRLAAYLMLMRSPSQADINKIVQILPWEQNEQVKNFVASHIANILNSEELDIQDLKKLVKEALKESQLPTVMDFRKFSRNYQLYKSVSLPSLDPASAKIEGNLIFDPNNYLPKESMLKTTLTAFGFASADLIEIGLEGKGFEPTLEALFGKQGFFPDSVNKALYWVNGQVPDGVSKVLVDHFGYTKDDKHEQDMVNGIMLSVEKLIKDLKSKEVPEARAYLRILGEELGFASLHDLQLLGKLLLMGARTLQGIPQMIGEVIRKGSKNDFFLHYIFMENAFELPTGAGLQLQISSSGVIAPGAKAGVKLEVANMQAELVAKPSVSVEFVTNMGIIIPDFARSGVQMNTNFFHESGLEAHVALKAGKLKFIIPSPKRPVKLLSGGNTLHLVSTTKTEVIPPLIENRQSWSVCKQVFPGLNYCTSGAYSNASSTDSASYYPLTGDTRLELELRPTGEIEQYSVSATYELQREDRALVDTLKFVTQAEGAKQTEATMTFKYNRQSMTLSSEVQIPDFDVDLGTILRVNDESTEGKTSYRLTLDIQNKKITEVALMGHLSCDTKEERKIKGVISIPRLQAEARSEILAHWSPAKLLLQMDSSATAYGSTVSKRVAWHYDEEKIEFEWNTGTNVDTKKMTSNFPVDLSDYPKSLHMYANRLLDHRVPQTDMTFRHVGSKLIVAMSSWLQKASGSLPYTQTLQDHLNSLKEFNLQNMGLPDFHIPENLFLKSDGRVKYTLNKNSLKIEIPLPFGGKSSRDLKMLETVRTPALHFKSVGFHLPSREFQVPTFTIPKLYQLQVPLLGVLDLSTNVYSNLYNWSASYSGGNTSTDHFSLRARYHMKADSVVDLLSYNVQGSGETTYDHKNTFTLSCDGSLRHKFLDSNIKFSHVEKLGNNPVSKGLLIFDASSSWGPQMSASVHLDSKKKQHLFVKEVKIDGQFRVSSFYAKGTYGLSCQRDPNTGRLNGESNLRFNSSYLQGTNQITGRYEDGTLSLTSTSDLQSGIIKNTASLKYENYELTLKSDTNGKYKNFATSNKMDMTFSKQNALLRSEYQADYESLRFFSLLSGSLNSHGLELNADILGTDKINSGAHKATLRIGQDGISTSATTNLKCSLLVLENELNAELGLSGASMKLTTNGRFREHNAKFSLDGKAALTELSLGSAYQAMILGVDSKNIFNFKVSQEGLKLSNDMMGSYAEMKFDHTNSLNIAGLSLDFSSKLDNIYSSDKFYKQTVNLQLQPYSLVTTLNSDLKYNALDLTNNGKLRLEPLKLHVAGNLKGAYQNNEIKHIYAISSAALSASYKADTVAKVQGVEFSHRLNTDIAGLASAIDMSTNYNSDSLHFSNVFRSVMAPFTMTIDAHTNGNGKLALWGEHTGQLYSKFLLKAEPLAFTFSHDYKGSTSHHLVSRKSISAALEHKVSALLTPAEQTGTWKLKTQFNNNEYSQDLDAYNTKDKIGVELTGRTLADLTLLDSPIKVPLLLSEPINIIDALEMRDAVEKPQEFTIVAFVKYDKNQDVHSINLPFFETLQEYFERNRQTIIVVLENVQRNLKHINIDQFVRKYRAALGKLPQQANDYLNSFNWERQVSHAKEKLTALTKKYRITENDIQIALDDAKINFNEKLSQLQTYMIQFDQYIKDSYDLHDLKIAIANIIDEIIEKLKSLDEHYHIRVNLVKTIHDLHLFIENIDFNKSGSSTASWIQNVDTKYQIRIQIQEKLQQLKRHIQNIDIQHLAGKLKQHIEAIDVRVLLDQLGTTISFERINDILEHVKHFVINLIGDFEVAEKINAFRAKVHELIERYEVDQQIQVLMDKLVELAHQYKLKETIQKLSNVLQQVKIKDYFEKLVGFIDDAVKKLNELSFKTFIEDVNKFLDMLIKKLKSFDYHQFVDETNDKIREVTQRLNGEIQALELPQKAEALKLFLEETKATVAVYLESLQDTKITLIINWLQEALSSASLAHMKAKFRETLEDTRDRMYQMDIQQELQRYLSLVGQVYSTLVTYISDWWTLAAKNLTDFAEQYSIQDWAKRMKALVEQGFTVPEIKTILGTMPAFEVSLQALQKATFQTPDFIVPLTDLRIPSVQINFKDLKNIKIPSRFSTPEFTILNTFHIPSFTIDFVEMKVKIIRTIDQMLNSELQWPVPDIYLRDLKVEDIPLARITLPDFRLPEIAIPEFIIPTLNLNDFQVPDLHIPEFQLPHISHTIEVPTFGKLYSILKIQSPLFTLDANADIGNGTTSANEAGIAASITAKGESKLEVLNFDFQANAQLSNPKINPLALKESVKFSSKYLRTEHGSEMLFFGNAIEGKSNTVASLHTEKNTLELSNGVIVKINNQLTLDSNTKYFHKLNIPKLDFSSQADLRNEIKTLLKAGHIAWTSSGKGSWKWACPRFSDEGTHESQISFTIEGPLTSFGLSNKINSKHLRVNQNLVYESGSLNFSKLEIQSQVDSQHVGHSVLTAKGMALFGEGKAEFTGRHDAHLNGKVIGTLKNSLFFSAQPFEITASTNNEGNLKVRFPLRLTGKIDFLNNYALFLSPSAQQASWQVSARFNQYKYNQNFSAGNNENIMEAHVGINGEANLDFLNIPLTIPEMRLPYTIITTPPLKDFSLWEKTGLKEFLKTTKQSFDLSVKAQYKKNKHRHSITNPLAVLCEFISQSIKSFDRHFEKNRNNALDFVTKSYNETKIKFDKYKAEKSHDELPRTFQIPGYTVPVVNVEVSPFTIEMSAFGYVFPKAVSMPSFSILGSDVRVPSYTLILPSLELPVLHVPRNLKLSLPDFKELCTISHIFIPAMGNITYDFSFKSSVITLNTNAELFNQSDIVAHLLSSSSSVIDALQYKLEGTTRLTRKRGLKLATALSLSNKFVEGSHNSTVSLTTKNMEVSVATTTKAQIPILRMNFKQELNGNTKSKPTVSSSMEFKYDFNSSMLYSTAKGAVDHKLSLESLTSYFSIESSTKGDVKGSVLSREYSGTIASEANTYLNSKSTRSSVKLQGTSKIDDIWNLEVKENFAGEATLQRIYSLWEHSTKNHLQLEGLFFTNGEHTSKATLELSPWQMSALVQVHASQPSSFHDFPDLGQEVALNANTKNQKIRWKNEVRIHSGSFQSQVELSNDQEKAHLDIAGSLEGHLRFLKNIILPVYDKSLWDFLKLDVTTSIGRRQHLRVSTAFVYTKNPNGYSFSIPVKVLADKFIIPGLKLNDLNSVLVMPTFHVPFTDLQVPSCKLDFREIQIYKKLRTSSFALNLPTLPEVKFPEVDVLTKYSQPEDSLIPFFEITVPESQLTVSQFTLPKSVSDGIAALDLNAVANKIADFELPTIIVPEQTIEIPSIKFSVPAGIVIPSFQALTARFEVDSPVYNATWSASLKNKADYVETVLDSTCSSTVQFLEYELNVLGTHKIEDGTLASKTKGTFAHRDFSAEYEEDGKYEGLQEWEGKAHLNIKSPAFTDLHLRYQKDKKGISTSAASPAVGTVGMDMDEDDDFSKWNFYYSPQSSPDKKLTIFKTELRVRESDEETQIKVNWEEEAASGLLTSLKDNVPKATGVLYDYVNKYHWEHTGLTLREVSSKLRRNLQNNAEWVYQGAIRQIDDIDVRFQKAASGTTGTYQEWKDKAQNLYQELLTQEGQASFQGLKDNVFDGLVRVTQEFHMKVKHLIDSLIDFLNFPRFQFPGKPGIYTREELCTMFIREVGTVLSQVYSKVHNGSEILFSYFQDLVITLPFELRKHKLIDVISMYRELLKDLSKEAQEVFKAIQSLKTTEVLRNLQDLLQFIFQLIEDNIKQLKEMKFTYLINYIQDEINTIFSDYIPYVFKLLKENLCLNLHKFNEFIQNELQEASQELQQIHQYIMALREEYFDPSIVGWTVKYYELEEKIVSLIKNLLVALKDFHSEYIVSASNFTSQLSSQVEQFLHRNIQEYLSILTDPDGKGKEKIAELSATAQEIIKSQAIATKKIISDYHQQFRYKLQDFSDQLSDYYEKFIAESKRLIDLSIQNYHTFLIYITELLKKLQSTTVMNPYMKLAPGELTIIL

Target: surfeit locus protein 4 (Surf4) (human (endogenous in Caco-2)) (UniProt O15260)
Experiment: co-IP

| binding | Substance |
| --- | --- |
| binds | apolipoprotein B-48 (apoB-48) (from UniProt P04114 28-2179) |
| binds | apolipoprotein B-100 (apoB-100) (from UniProt P04114 28-4563) |
